In article PMC7862700:
The list shows a part of the results, in another mix than the full data. At the low end of the ranking the order means little.

Protein sequences, listed by entry. Tags and fused reporters are not part of them. Lines headed by an entry give the natural chain unless they say otherwise; changes in a name come on top.
UniProt Q9Y603: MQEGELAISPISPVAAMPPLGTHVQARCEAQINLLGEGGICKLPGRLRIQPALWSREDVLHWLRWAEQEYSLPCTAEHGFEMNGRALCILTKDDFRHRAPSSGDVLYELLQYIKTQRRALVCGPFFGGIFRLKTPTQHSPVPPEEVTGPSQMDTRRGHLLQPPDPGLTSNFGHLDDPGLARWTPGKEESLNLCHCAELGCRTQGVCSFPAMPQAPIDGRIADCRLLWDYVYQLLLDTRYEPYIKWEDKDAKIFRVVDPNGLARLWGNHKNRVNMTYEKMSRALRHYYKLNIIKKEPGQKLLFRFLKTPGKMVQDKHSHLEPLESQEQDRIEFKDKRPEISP

target: ETV7 (UniProt Q9Y603); experiment: DAPPL (digital affinity profiling via proximity ligation, sequencing); conditions: 10 mM Tris-HCl pH 7.5, 50 mM NaCl, 1 mM DTT, 4% glycerol, room temperature, 30 min; GST-TFs on glutathione beads, 16-mer random dsDNA library, 0.1% …; high values mean tight binding; double strand, one strand shown; scale: fold enrichment (6-mer frequency, TF over GST control)

| Sequence | binding signal |
| --- | --- |
| TACAGA | 1.18 |
| GTTAAA | 0.975 |
| TCCTGT | 1.89 |
| AGGTAA | 0.959 |
| AGGAAC | 0.988 |
| CGTCGC | 1.23 |
| AAAATG | 1.28 |
| GTGTCC | 1.22 |
| TCTGGA | 1 |
| GACGAC | 0.956 |
| AATCCA | 1.14 |
| CGGATG | 1.41 |
| TTTGTG | 1.2 |
| ATTACA | 1.08 |
| AACTAC | 1.39 |
| CAGATT | 0.993 |
| TTATTA | 1.11 |
| GAATGT | 1.13 |
| AGCATT | 1.14 |
| GTTATT | 1.29 |

| Sequence | binding signal |
| --- | --- |
| CGTAAA | 1.08 |
| TTATGC | 1.44 |
| TAATAC | 1.11 |
| TAGTGG | 1.17 |
| ATTCCT | 1.39 |
| CAACTG | 1.06 |
| GAAGTG | 1.7 |
| CGGAAC | 0.995 |
| CGGCAC | 1 |
| AAAGTT | 1.15 |
| GGTTCA | 0.972 |
| GTCCGC | 0.992 |
| GTTCGA | 1.13 |
| GGTCTA | 0.946 |
| GTCTCG | 1.28 |
| TCTACA | 0.953 |
| TCGATG | 1.17 |
| GGACCT | 1.34 |
| ATCTAT | 1.18 |
| TGCCCT | 1.08 |

A different layout for some results above:
Sequence	binding signal
AACTAC	1.39
CAGATT	0.993
